Results deposited as PubChem BioAssay AID1259405 (NCATS, 2018).
This is one part, drawn at random, of about 50,000 deposited reagents. In the full data, about 4,000 (8%) got an active call. 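Mouse siRNA library applied to hamster cells; one well for each siRNA.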 The numbers tell different reagents against one gene apart.

Test: 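Mouse-designed siRNAs used to find CHO productivity engineering targets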 (primary screen)
Cell system: Chinese hamster CHO-K1 ovary cells with stable secreted eGFP expression
Knock-down reagent: single siRNA against mouse genes, 0.8 pmol siRNA per well (2 µl of 400 nM stock)
Duration: 3 days
Measurement: 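Per-well intracellular GFP measured by laser scanning cytometry, plus viability from ATP luminescence, each relative to plate median of non-targeting control wells, in %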
Reading the numbers: GFP, % of control: higher = more GFP per well, higher productivity; viability (ATP), % of control: higher = more viable cells (more ATP)
Call rule: 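a knock-down is called active if GFP reaches 120% or more of non-targeting control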

no.	gene symbol	siRNA no.	GFP, % of control	viability (ATP), % of control	outcome
1	9330155M09Rik	1	82.6	68.2	inactive
2	9330155M09Rik	2	36.5	55.3	inactive
3	9330155M09Rik	3	84.3	85.2	inactive
4	Tmem174	1	75	127	inactive
5	Tmem174	2	140	61.3	active
6	Tmem174	3	77.5	80.7	inactive
7	Dusp26	1	56.6	80	inactive
8	Dusp26	2	96.2	106	inactive
9	Rps6ka3	1	36.9	41.9	inactive
10	Rps6ka3	2	81	64.1	inactive
11	Rps6ka3	3	91.3	82.2	inactive
12	Spart	1	42.8	51.6	inactive
13	Spart	2	81	109	inactive
14	Spart	3	106	79.9	inactive
15	Klc4	1	106	80	inactive
16	Klc4	2	91.1	84.9	inactive
17	Klc4	3	87.6	72.1	inactive
18	Rexo5	1	121	90.7	active
19	Rexo5	2	90.9	65.8	inactive
20	Rexo5	3	78.6	55.8	inactive
21	Or51k1	1	110	74.9	inactive
22	Or51k1	2	122	90.1	active
23	Or51k1	3	132	65.7	active
24	Tmem245	1	82.6	93.4	inactive
25	Tmem245	2	2.25	2.58	inactive
26	Tmem245	3	91.9	97.4	inactive
27	Gnal	1	58.6	63.8	inactive
28	Gnal	2	67.5	80.6	inactive
29	Gnal	3	22.1	27	inactive
30	Rnf41	1	79.5	53.3	inactive
31	Rnf41	2	59.9	67.1	inactive
32	Rnf41	3	34.9	68.1	inactive
33	Htr7	1	120	109	active
34	Htr7	2	79.8	70.3	inactive
35	Htr7	3	115	76	inactive
36	Tma7	1	98.1	89.6	inactive
37	Tma7	2	119	77.4	inactive
38	Tma7	3	91.9	39.4	inactive
39	Ehd4	1	117	80.5	inactive
40	Ehd4	2	66.7	66.2	inactive
41	Ehd4	3	65.9	83.1	inactive
42	Lias	1	71.4	86.6	inactive
43	Lias	2	102	108	inactive
44	Sfxn3	1	81.2	78.8	inactive
45	Sfxn3	2	61.9	81.6	inactive
46	Sfxn3	3	33.4	44.7	inactive
47	Or14c39	1	126	61	active
48	Or14c39	2	69.4	53.5	inactive
49	Or14c39	3	95.3	82	inactive
50	Ubxn2a	1	46.7	59.2	inactive
51	Ubxn2a	2	64	84.6	inactive
52	Ubxn2a	3	85.2	97.8	inactive
53	Lce1d	1	102	94	inactive
54	Lce1d	2	97.1	121	inactive
55	Lce1d	3	200	149	active
56	Sgsh	1	111	77.7	inactive
57	Sgsh	2	50.2	50.5	inactive
58	Sgsh	3	66.7	62.2	inactive

Part of the list above, limited to “viability (ATP), % of control”.
Rexo5 #1 = 90.7
Rexo5 #2 = 65.8
Rexo5 #3 = 55.8
Or51k1 #1 = 74.9
Or51k1 #2 = 90.1
Or51k1 #3 = 65.7
Tmem245 #1 = 93.4
Tmem245 #2 = 2.58
Tmem245 #3 = 97.4
